Earlier results, collected in patent US7618987B2, “Acylated piperidine derivatives as melanocortin 4-receptor agonists” (Merck & Co., Inc., priority 2004, dated 2009).
Some of these results come from one statement about several compounds together. Some ranges recur; such a range may be that of the whole group of compounds.

Details: drug compared to placebo

Question: Which weight loss does the source give for `CCCCCCCCCCC[C@@H](C[C@@H]1OC(=O)[C@H]1CCCCCC)OC(=O)[C@H](CC(C)C)NC=O` [orlistat] here?
Answer: 5%-10%
